These are yes or no findings as the source states them, for the method shown. Binding seen in cells or lysates may run through a third protein. A yes stands for co-enrichment or nearness to the bait. Other partners may have been found.

In the assay the target is FLAG-tagged AGO1 (human) (UniProt Q9UL18). Description: affinity purification with mass spectrometry; ex vivo interactors: anti-FLAG M2 IP of FLAG-AGO1 or FLAG-AGO1x from total cell lysates, glycine elution, LC/MS; MDA-MB-231 and HeLa cells.

Turning to “TNRC6B/GW182 (from UniProt Q9UPQ9 1-1833)”, the binding result was “binds”.

For the origin of these results see article PMC7507497.
